PubChem BioAssay AID504784, Drosophila RNAi Screening Center | 2011

- Assay: 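Search for regulators of lipid droplet storage in oleate-fed fly cells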 (primary screen)
- System: Drosophila Kc167 embryonic cells
- Reagents: long dsRNA against Drosophila genes, about 250 ng dsRNA per well
- Timing: 4 days
- Conditions: cells fed 400 µM oleic acid bound to BSA
- Detection: 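Cells imaged and segmented; ratio of lipid droplet area to nuclear area, log-transformed, then normalised as a B-score over the screen; higher means more stored lipid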
- Reading the numbers: droplet/nuclear area B-score: higher = more stored lipid (overstorage)
In all, the deposit lists about 17,000 reagents; shown is an unselected part of those with a known target gene and a result. 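Each column is one replicate's B-score; the combined score over replicates was not deposited, so single values may mislead.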 Reagents against one gene are numbered here. Names joined by + are all predicted targets of the reagent. Further read-outs or replicates are left out here.

With knock-down of brv2, the record shows droplet/nuclear area B-score, replicate 1 = -0.314.
Edc3 scored droplet/nuclear area B-score, replicate 1 = 1.85.
For unc-104 the deposit lists droplet/nuclear area B-score, replicate 1 = -0.173.
Depletion of cmb gave: droplet/nuclear area B-score, replicate 1 = 1.72.
CG3652 showed droplet/nuclear area B-score, replicate 1 = -0.534.
Prp40 showed droplet/nuclear area B-score, replicate 1 = -0.667.
Knock-down of CG17544 resulted in: droplet/nuclear area B-score, replicate 1 = -1.15.
Depletion of CG31462 (retired record) resulted in: droplet/nuclear area B-score, replicate 1 = -0.0658.

Part of the list above, reformatted.
Prp40
- droplet/nuclear area B-score, replicate 1: -0.667

CG17544
- droplet/nuclear area B-score, replicate 1: -1.15

The list goes on.
Silencing of bug came out at: droplet/nuclear area B-score, replicate 1 = -0.485.
Dgat2 gave droplet/nuclear area B-score, replicate 1 = 1.18.
PNPase gave droplet/nuclear area B-score, replicate 1 = 1.2.
UGP + PGRP-LF gave droplet/nuclear area B-score, replicate 1 = -0.843.
THG gave droplet/nuclear area B-score, replicate 1 = -1.39.
Against Sf3a2, the values are droplet/nuclear area B-score, replicate 1 = -1.32.
fig scored droplet/nuclear area B-score, replicate 1 = 0.909.
After knock-down of RhoGAP19D #1 the results were droplet/nuclear area B-score, replicate 1 = 2.03.
RhoGAP19D #2 showed droplet/nuclear area B-score, replicate 1 = 0.403.
